Drawing on PubChem BioAssay AID463183 (Sanford-Burnham Center for Chemical Genomics, 2010), this text covers cell count for 47 compounds.

The list shows a part of the results. These are further read-outs of the screen, such as a control signal, another cell line or another target. No call is given for them. Most of these compounds were active or inconclusive in the main read-out, so they are no random draw.

The nature of the test: hepatocyte lipid droplet accumulation inhibitors, confirmation, imaging, AML12 mouse hepatocytes, single concentration, high-content (AID 463183).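 Further: cells counted after overnight compound exposure.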 To be noted: BODIPY lipid droplet imaging, measured here: cell count, cytotoxicity, at 5.2 µM, droplets induced with 100 µM oleic acid.

The compound `COc1ccc(OC)c(CNC(=O)CCCc2cn(C)c3ccccc23)c1` showed a cell count of 1490 cells. For `CCOc1cc(/C=N\Nc2nc(Nc3ccccc3)nc(N3CCOCC3)n2)ccc1OC(=O)c1ccco1` the value was 895 cells; for `CCOc1ccc(C2=Nc3ccc(Br)cc3C(c3ccc(N4CCOCC4)cc3)=NN2)cc1`, 1600 cells; for `Cc1ccc(C)c(NC(=O)Cn2cc(C(=O)C3CC3)c3ccccc32)c1`, 1600 cells. For `COc1ccc(C[C@H]2CN3C(=NC[C@H]3Cc3ccccc3)N2CCNC(=O)c2ccc(C)c(Br)c2)cc1` the value was 1500 cells; for `Cc1[nH]n(-c2ccccc2)c(=O)c1N=Nc1cccc(Cl)c1`, 1640 cells. For `CCOc1cc2c(cc1OCC)C(c1ccccc1OC)OC(=O)C2` (configuration not stated) the value was 1600 cells; for `C/C(=C\c1cccc(Cl)c1Cl)C(=O)c1c(C)cc(C)[nH]c1=O`, 1560 cells. In turn, `O=C(/C=C/c1ccc(Cl)cc1)NC(=S)Nc1ccc(NC(=O)c2ccco2)cc1` showed a cell count of 1420 cells. In the case of `CCOc1ccc(CN(C)C(=O)NNC(=O)c2ccc(C)cc2)cc1OC` it was 1680 cells; in that of `COc1ccc(Cl)cc1NC(=O)Nc1ccc(C(=O)N2CCCC2)cc1`, 1660 cells. For `CCCCN(CCCNC(=O)CN1C(=O)COc2ccccc21)c1ccccc1` the value was 1580 cells.

On to `COc1ccc(C2CC(c3cccs3)=NN2C(=O)CSc2nc3ccccc3s2)cc1` (configuration not stated), for which the cell count worked out at 1600 cells. In the case of `COc1ccc(-c2csc(NNC3=NCCCCC3)n2)cc1` it was 1580 cells. In the case of `CCOC(=O)c1ccc(N2CCN(c3ccccc3F)CC2)c(NC(=O)Nc2ccccc2)c1` it was 1600 cells. For `CCOc1ccc(-c2nonc2NC(=O)c2ccco2)cc1` the value was 1670 cells. Compound `Cc1[nH]n(-c2ccccc2)c(=O)c1N=Nc1ccc(Cl)cc1` yielded a cell count of 1430 cells. For `COc1cc2ncnc(NCc3cccs3)c2cc1OC` the value was 940 cells. In the case of `CCCc1cc(N2CCOCC2)n2nc(C)c(-c3ccccc3)c2n1` it was 1470 cells; in that of `CCOc1ccc(C(=O)OCC(=O)Nc2cc(C)on2)cc1OCC`, 1640 cells; in that of `O=C(CSc1nc2ccccc2o1)Nc1nc(-c2ccccc2)c(-c2ccccc2)s1`, 1680 cells. `Cc1ccccc1N/C(=N/S(=O)(=O)c1ccccc1)c1ccc(F)cc1`: the cell count turned out to be 1600 cells. For `COc1ccc(OC)c(NC(=O)CCCNC(=O)c2ccc(Cl)cc2)c1` the value was 1660 cells.

The compound `Cc1cc(C)n2nc(C(=O)N/N=C/c3c4ccccc4cc4ccccc34)nc2n1` yielded a cell count of 1550 cells. For `CCc1ccc(C(=O)CSc2nc3cc(S(=O)(=O)N4CCOCC4)ccc3n2CC)cc1` the value was 1640 cells; for `CCCCOc1ccc(C(=O)Nc2cc(C)c(OCC(=O)N3CCOCC3)c(C)c2)cc1`, 1560 cells. `O=c1[nH]cnc2sc3c(c12)CCN(Cc1ccccc1)C3`: the cell count worked out at 1530 cells. In the case of `Cc1ccc2nc(Nc3ccc(F)cc3)c3nncn3c2c1` it was 1590 cells; in that of `Cc1occc1C(=O)N/N=C/c1ccc(OCc2ccccc2)cc1`, 1580 cells; in that of `COc1ccccc1N1CCN(C(=O)Cn2ncc3c([nH]c4ccccc43)c2=O)CC1`, 1680 cells. `Cc1cccc(NC2=C(NCCO)C(=O)c3ccccc3C2=O)c1` came in with a cell count of 1560 cells. Compound `Cc1nc2ccccc2nc(=O)c1NNc1ccccc1` registered a cell count of 1230 cells. `Cc1cc(=O)oc2cc(OCC(=O)NCCCN3CCCC3=O)ccc12` gave a cell count of 1630 cells. Consider `COc1cc(SC)ccc1C(=O)OC(C)C(=O)Nc1ccc(NC(C)=O)cc1` (configuration not stated), for which the cell count is 1620 cells. In the case of `COc1cc2c(cc1NC(=S)NC(=O)c1c(OC)cccc1OC)oc1ccccc12` it was 1570 cells. In the case of `Cc1ccc(C(C(=O)NC(C)(C)C)N(Cc2ccco2)C(=O)CCC(=O)Nc2ccccn2)cc1` (configuration not stated) it was 1500 cells. In the case of `Cc1cc(OCC(=O)NC2CC2)c2c(C)cc(=O)oc2c1` it was 1620 cells. Take `COc1ccc(CNC(=O)C2CCCN(C(=O)Nc3ccccc3OC)C2)cc1` (configuration not stated): the cell count was 1640 cells. In turn, `O=C(Cc1cccc2ccccc12)Nc1ccc(-c2cc3ccccc3oc2=O)cc1` displayed a cell count of 1600 cells. For `CCOc1ccc(NC(=O)CSc2nc3ccccc3nc2N2CCCC2)cc1` the value was 1670 cells; for `COc1cccc(NC(=O)CSc2nc3ccccc3nc2N2CCCC2)c1`, 1660 cells; for `CCOc1ccc(CCNC(=O)COC(=O)/C=C/c2ccc(OCC#N)c(OC)c2)cc1OCC`, 1640 cells. In the case of `COc1ccc(-c2c/c(=N\c3nc(-c4ccccc4)c(C)s3)c3ccccc3o2)cc1O` it was 744 cells.

In turn, `O=C(Nc1ccccc1)c1ccc(NCC2CCCO2)c(S(=O)(=O)N2CCOCC2)c1` (configuration not stated) came in with a cell count of 1590 cells. In the case of `COC(=O)[C@@H]1C[C@@]2(O)[C@H](O)[C@H](O)[C@H](O)C[C@H]2N1Cc1cc(F)ccc1F` it was 1600 cells. For the compound `CCn1cc(C(=O)NCc2ccc(Cl)cc2)c(=O)c2cc(S(=O)(=O)N(C)C)ccc21`, the cell count amounted to 1630 cells. In the case of `CC(Sc1nc(NCc2ccccc2)nc(N2CCOCC2)n1)C(=O)Nc1ccccc1` (configuration not stated) it was 1540 cells.
